These are yes or no findings as the source states them, for the method shown. In cells and extracts the contact can be indirect. Here binding means that the protein was enriched with, or labelled near, the bait; the list need not be complete. No binding means not detected with the bait. Sequences can lack the tags named with a protein.
T1: TMEM126A with a C-terminal Flag epitope tag (human) (UniProt Q9H061)
T1 sequence: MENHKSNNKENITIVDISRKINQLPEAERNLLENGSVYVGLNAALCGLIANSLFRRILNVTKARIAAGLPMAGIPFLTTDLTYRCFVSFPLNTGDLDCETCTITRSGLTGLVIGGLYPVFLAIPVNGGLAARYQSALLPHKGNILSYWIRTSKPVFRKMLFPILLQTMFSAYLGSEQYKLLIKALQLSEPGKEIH

Sequences of proteins named here, by UniProt entry; tags and fusion partners are left off. Residues count along the entry.
UniProt Q9P032: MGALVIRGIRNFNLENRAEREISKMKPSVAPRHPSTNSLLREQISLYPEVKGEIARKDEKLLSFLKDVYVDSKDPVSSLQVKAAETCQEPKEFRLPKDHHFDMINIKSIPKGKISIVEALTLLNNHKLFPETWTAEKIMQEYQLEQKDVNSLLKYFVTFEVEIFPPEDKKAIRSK
UniProt O95299, residues 36-355: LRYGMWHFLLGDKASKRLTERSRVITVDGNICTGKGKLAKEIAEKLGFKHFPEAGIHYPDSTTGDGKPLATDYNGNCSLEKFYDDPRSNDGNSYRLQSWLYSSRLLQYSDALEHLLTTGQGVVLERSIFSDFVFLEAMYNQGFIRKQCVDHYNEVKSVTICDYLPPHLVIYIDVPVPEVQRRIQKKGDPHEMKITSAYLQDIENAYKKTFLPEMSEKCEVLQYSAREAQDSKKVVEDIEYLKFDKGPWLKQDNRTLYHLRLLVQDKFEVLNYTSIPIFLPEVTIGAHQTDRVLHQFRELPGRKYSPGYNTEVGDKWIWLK
UniProt O95167: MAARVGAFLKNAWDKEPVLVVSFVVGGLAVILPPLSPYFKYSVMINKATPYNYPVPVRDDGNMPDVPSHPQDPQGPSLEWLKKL
UniProt O95139: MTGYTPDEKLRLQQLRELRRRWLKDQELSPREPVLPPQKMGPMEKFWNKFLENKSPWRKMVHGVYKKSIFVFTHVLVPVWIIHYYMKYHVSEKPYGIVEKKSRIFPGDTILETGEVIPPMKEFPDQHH
UniProt Q9NX14, residues 30-153: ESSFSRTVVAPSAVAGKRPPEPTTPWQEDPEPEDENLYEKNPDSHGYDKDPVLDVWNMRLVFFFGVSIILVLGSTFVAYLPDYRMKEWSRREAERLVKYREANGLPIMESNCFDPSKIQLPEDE
UniProt O43674, residues 47-189: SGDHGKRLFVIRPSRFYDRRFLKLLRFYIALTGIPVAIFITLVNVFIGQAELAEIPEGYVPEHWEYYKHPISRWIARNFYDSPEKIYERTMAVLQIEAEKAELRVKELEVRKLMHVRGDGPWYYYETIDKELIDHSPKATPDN
UniProt Q9P0J0: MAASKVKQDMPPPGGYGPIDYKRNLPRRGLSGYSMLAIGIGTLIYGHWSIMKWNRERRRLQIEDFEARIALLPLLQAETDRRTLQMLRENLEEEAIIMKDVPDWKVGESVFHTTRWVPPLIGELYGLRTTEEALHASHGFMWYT
UniProt P51970: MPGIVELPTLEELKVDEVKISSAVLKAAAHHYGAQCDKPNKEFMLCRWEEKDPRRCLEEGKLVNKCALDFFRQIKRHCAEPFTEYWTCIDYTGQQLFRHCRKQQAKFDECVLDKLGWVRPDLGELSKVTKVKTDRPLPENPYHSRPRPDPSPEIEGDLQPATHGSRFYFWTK
UniProt O95169, residues 29-186: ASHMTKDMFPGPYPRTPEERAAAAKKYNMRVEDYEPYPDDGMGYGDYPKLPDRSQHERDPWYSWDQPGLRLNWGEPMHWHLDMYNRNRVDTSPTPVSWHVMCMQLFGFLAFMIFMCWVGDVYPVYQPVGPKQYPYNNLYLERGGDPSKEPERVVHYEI
UniProt Q9Y6M9: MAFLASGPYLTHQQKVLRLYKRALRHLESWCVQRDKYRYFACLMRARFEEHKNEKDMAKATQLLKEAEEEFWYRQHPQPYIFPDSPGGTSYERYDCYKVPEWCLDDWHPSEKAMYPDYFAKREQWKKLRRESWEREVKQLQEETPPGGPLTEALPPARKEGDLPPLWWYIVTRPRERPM
UniProt Q9BU61: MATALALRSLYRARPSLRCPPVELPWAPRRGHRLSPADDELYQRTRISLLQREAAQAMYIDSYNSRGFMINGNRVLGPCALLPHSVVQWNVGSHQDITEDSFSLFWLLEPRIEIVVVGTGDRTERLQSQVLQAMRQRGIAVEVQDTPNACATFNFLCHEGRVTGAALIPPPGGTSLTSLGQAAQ

B1: ECSIT (protein, UniProt Q9BQ95 49-431)
chain: SSEQSLVPSPPEPRQRPTKALVPFEDLFGQAPGGERDKASFLQTVQKFAEHSVRKRGHIDFIYLALRKMREYGVERDLAVYNQLLNIFPKEVFRPRNIIQRIFVHYPRQQECGIAVLEQMENHGVMPNKETEFLLIQIFGRKSYPMLKLVRLKLWFPRFMNVNPFPVPRDLPQDPVELAMFGLRHMEPDLSARVTIYQVPLPKDSTGAADPPQPHIVGIQSPDQQAALARHNPARPVFVEGPFSLWLRNKCVYYHILRADLLPPEEREVEETPEEWNLYYPMQLDLEYVRSGWDNYEFDINEVEEGPVFAMCMAGAHDQATMAKWIQGLQETNPTLAQIPVVFRLAGSTRELQTSSAGLEEPPLPEDHQEEDDNLQRQQQGQS
B2: ACAD9 (protein, UniProt Q9H845 38-621)
chain: AFAKELFLGKIKKKEVFPFPEVSQDELNEINQFLGPVEKFFTEEVDSRKIDQEGKIPDETLEKLKSLGLFGLQVPEEYGGLGFSNTMYSRLGEIISMDGSITVTLAAHQAIGLKGIILAGTEEQKAKYLPKLASGEHIAAFCLTEPASGSDAASIRSRATLSEDKKHYILNGSKVWITNGGLANIFTVFAKTEVVDSDGSVKDKITAFIVERDFGGVTNGKPEDKLGIRGSNTCEVHFENTKIPVENILGEVGDGFKVAMNILNSGRFSMGSVVAGLLKRLIEMTAEYACTRKQFNKRLSEFGLIQEKFALMAQKAYVMESMTYLTAGMLDQPGFPDCSIEAAMVKVFSSEAAWQCVSEALQILGGLGYTRDYPYERILRDTRILLIFEGTNEILRMYIALTGLQHAGRILTTRIHELKQAKVSTVMDTVGRRLRDSLGRTVDLGLTGNHGVVHPSLADSANKFEENTYCFGRTVETLLLRFGKTIMEEQLVLKRVANILINLYGMTAVLSRASRSIRIGLRNHDHEVLLANTFCVEAYLQNLFSLSQLDKYAPENLDEQIKKVSQQILEKRAYICAHPLDRTC
B3: TIMMDC1 (protein, UniProt Q9NPL8 1-285)
chain: MEVPPPAPRSFLCRALCLFPRVFAAEAVTADSEVLEERQKRLPYVPEPYYPESGWDRLRELFGKDEQQRISKDLANICKTAATAGIIGWVYGGIPAFIHAKQQYIEQSQAEIYHNRFDAVQSAHRAATRGFIRYGWRWGWRTAVFVTIFNTVNTSLNVYRNKDALSHFVIAGAVTGSLFRINVGLRGLVAGGIIGALLGTPVGGLLMAFQKYSGETVQERKQKDRKALHELKLEEWKGRLQVTEHLPEKIESSLQEDEPENDAKKIEALLNLPRNPSVIDKQDKD
B4: TMEM70 (protein, UniProt Q9BUB7 82-260)
chain: LNTPSDKSEDGRLIYTGNMARAVFGVKCFSYSTSLIGLTFLPYIFTQNNAISESVPLPIQIIFYGIMGSFTVITPVLLHFITKGYVIRLYHEATTDTYKAITYNAMLAETSTVFHQNDVKIPDAKHVFTTFYAKTKSLLVNPVLFPNREDYIHLMGYDKEEFILYMEETSEEKRHKDDK
B5: FOXRED1 (protein, UniProt Q96CU9 1-486)
chain: MIRRVLPHGMGRGLLTRRPGTRRGGFSLDWDGKVSEIKKKIKSILPGRSCDLLQDTSHLPPEHSDVVIVGGGVLGLSVAYWLKKLESRRGAIRVLVVERDHTYSQASTGLSVGGICQQFSLPENIQLSLFSASFLRNINEYLAVVDAPPLDLRFNPSGYLLLASEKDAAAMESNVKVQRQEGAKVSLMSPDQLRNKFPWINTEGVALASYGMEDEGWFDPWCLLQGLRRKVQSLGVLFCQGEVTRFVSSSQRMLTTDDKAVVLKRIHEVHVKMDRSLEYQPVECAIVINAAGAWSAQIAALAGVGEGPPGTLQGTKLPVEPRKRYVYVWHCPQGPGLETPLVADTSGAYFRREGLGSNYLGGRSPTEQEEPDPANLEVDHDFFQDKVWPHLALRVPAFETLKVQSAWAGYYDYNTFDQNGVVGPHPLVVNMYFATGFSGHGLQQAPGIGRAVAEMVLKGRFQTIDLSPFLFTRFYLGEKIQENNII
B6: DMAC2 (protein, UniProt Q9NW81 1-257)
chain: MAAPWASLRLVAPMWNGRIRGIHRLGAAVAPEGNQKKKRTILQFLTNYFYDVEALRDYLLQREMYKVHEKNRSYTWLEKQHGPYGAGAFFILKQGGAVKFRDKEWIRPDKYGHFSQEFWNFCEVPVEAVDAGDCDINYEGLDNLLRLKELQSLSLQRCCHVDDWCLSRLYPLADSLQELSLAGCPRISERGLACLHHLQNLRRLDISDLPAVSNPGLTQILVEEMLPNCEVVGVDWAEGLKSGPEEQPRDTASPVPA

Target: T1, TMEM126A with a C-terminal Flag epitope tag (human)
Experiment: affinity purification with mass spectrometry

Molecule | binding
OXA1L (human (endogenous in HEK293T)) | binds
NDUFAF4 (from UniProt Q9P032 1-175) | binds
NDUFA10 (from UniProt O95299 36-355) | binds
NDUFA3 (from UniProt O95167 1-84) | binds
NDUFB6 (from UniProt O95139 1-128) | binds
NDUFB11 (from UniProt Q9NX14 30-153) | binds
NDUFB5 (from UniProt O43674 47-189) | binds
NDUFA13 (from UniProt Q9P0J0 1-144) | binds
NDUFA8 (from UniProt P51970 1-172) | binds
NDUFB8 (from UniProt O95169 29-186) | binds
NDUFB9 (from UniProt Q9Y6M9 1-179) | binds
NDUFAF3 (from UniProt Q9BU61 1-184) | binds
B1 | binds
B2 | binds
B3 | binds
B4 | binds
B5 | no binding
B6 | no binding

From publication doi:10.1101/2020.09.18.303255
